Experimental data taken from PubChem BioAssay AID1439 (NMMLSC, 2008).
Out of some 220,000 compounds screened, about 770 (0.35%) were called active. The shares of active, inactive and inconclusive entries below differ from those in the screen. No stated cut-off is given here; in the data, active means binding response below about 49% or above about 150%; inconclusive means no clear call, values can overlap the other calls; inactive means in between.

Sequences of proteins named here, by UniProt entry; tags and fusion partners are left off.
UniProt P09471, whole entry, looked up: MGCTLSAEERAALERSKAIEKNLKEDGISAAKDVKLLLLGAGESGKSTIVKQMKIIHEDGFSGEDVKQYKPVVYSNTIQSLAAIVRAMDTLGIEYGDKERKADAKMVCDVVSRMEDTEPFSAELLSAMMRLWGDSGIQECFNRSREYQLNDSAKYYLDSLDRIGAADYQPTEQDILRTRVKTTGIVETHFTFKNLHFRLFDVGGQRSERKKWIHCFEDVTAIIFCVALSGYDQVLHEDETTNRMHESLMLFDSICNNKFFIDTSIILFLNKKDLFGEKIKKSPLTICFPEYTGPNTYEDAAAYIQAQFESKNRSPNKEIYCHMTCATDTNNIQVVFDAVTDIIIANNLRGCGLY

biological target: Guanine nucleotide-binding protein G(o) subunit alpha (Homo sapiens) (UniProt P09471); experiment: RGS7-Galphao binding modulators, primary screen, biochemical, multiplexed bead flow cytometry (AID 1439); details: at 10 µM, actives lie on both sides;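 further: fluorescent Galphao held in activated GDP-AlF4 state binding bead-coupled RGS7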

Structure (SMILES)	binding response (% of control)
Cc1csc(=Nc2ccccc2)n1Cc1ccco1	inconclusive: 97.5%
COC(=O)C1=C(C)N(c2ccc(OC)cc2)C(C)=C(C(=O)OC)C1c1ccc(OC)cc1	inconclusive: 98.3%
Cc1cc2ncn(C(=O)N3CCCCCC3)c2cc1C	inactive: 93.3%
Nc1nnc(CCCCCc2nnc(N)s2)s1	inconclusive: 108%
Nc1nc(Nc2cccc(Cl)c2)nc(NCCO)c1[N+](=O)[O-]	inconclusive: 113%
O=S(=O)(c1cccs1)N1CN(Cc2ccco2)c2nc3ccccc3nc21	inconclusive: 58.9%
O=S(=O)(Nc1cc(S(=O)(=O)N2CCOCC2)ccc1N1CCCC1)c1cccs1	inconclusive: 109%
Cc1cccnc1NC(=O)c1csnn1	inconclusive: 132%
O=C(COc1ncnc2cc([N+](=O)[O-])ccc12)NC1CCCCC1	inconclusive: 123%
CN(C)c1nc(Nn2cnnc2)nc(N(C)C)n1	inconclusive: 93.7%
COc1cccc(C2CC(=O)Nc3cc4c(cc32)CCC4)c1 (stereo unspecified)	inconclusive: 133%
O=C(NC1CC(=O)c2sccc21)c1ccc(Cl)cc1Cl (stereo unspecified)	inconclusive: 85.9%
O=C(CCc1nnc(CCCCc2ccccc2)o1)NCCN1CCCCC1=O	inactive: 98%
CC(C)Oc1ccc(C(CC(=O)O)c2ccc(F)cc2)cc1 (stereo unspecified)	inconclusive: 118%
COc1cc(/C=C/C(=O)O)cc(S(=O)(=O)Nc2ccc3nc(SC)sc3c2)c1OC	inconclusive: 90%
CCCCN(CCCC)CC(O)COc1ccccc1C(=O)Nc1ccccc1 (stereo unspecified)	inconclusive: 88.7%
Cc1ccc(-c2nc3c(c(=O)c4ccccc4n3C)c(=O)n2-c2ccc(F)cc2)cc1	inconclusive: 237%
CC(C)Sc1nc2ccc(N3C(=O)C4CCCCC4C3=O)cc2s1 (stereo unspecified)	inactive: 88.5%
COc1ccccc1-c1nnc(SCC(=O)NCc2ccco2)n1N	inconclusive: 106%
Cc1cc(C)c(-n2c(SCCS(=O)(=O)c3ccc(F)cc3)n[nH]c2=O)c(C)c1	inconclusive: 103%
CN(C)S(=O)(=O)N1CCCC(C(=O)c2ccc(-c3ccccc3)cc2)C1 (stereo unspecified)	inactive: 117%
CN1CCC=C(C(=O)N2c3ccccc3Sc3ccc(Cl)cc32)C1	inconclusive: 116%
O=C(COC(=O)CNC(=O)c1cccs1)Nc1ccccc1C(F)(F)F	inconclusive: 97.2%

3 records picked at random from those above:
Structure (SMILES)	binding response (% of control)
CCCCN(CCCC)CC(O)COc1ccccc1C(=O)Nc1ccccc1 (stereo unspecified)	inconclusive: 88.7%
O=S(=O)(Nc1cc(S(=O)(=O)N2CCOCC2)ccc1N1CCCC1)c1cccs1	inconclusive: 109%
O=C(COC(=O)CNC(=O)c1cccs1)Nc1ccccc1C(F)(F)F	inconclusive: 97.2%

More structures follow.

Structure (SMILES)	binding response (% of control)
CCOC(=O)C(CC)(CCC(=O)OC)c1csc(Nc2ccccc2O)n1 (stereo unspecified)	inconclusive: 116%
CCn1c(SCC(=O)OC)nnc1-c1c[nH]c2ccccc12	inconclusive: 86.8%
CC(C)(C)NS(=O)(=O)c1ccc(CCC(=O)N2CCCC2)cc1	inactive: 101%
O=C(O)c1cc(-c2cccc([N+](=O)[O-])c2)nc2ccccc12	inconclusive: 158%
CC(=O)c1cccc(NC(=S)NNC(=O)c2ccc(C)c([N+](=O)[O-])c2)c1	inconclusive: 85.5%
Cc1ccc(C(=O)NC2CCCCNC2=O)cc1 (stereo unspecified)	inconclusive: 107%
COc1ccc(O)c(/C=N/N2CCOCC2)c1	inconclusive: 72.1%
COC(=O)C1=C(C(=O)OC)[C@@H]2N(Cc3ccccc3)c3ccccc3[C@@]23C[C@@H](C(=O)OC)N=C3N1	inconclusive: 125%
CC(=O)Nc1nccc(-c2cc(-c3ccccc3)no2)n1	inconclusive: 83.9%
COCCNC(=O)C1=NOC(Cn2cc(C#N)c(=O)n(C)c2=O)C1 (stereo unspecified)	inconclusive: 108%
COc1ccc(OC)c(C(=O)Cn2nnc(-c3ccc(N4CCOCC4)cc3)n2)c1	inconclusive: 95.5%
O=C(CCl)c1ccc2[nH]c(=O)oc2c1	inconclusive: 133%
COc1ccc(NC(=O)c2ccc(NC3CC(=O)N(c4ccc(C)cc4C)C3=O)cc2)cc1 (stereo unspecified)	inconclusive: 103%
CCCCNC(=O)O/N=C(\N)CS(=O)(=O)C(C)(C)C	inconclusive: 371%
Cc1ccc(/C=C/C2=Cc3c(sc(NC(=O)CSc4n[nH]c(N)n4)c3C#N)C(C)(C)C2)o1	inactive: 92.6%
CCn1cc(CN2CCCC(C(=O)c3ccc(-c4ccccc4)c(F)c3)C2)cn1 (stereo unspecified)	inconclusive: 125%
O=C(Nc1ccc(N2CCOCC2)nc1)c1c(F)cccc1F	inconclusive: 33.9%
O=C(Nc1ccccc1)N1CCCC1c1cccs1 (stereo unspecified)	inconclusive: 89.9%
CC[C@]12CCCN3CCc4c(n(c5ccccc45)C(=O)C1)C32 (stereo partly specified)	inconclusive: 91.2%
CN(C)c1ccc(C2CNC(c3ccc(Cl)c([N+](=O)[O-])c3)c3[nH]c4ccccc4c32)cc1 (stereo unspecified)	inconclusive: 77.5%
CCCOC(=O)c1ccc(NC(=O)c2ccoc2C)cc1	inactive: 106%
N=C1C(c2nc3ccccc3[nH]2)=C(O)CN1C1CCCCC1	inconclusive: 109%
COc1ccc(C(=O)Nc2ccccc2C(=O)O)cc1NC(=O)C(c1ccccc1)c1ccccc1	inconclusive: 88.8%

2 of the compounds above, as labelled records.
Cc1ccc(C(=O)NC2CCCCNC2=O)cc1 (stereo unspecified)
  binding response (% of control): inconclusive: 107%
COc1ccc(O)c(/C=N/N2CCOCC2)c1
  binding response (% of control): inconclusive: 72.1%

Next entries

Structure (SMILES)	binding response (% of control)
CN(Cc1ccccc1)C(=O)C1CCC(CNS(=O)(=O)c2cccc3cccnc23)CC1 (stereo unspecified)	inconclusive: 86.4%
Cc1[nH]c2ccccc2c1C(=O)CSC(=S)N1CCCCC1	inactive: 102%
CC(Oc1ccc(Cl)cc1Cl)c1nc(-c2ccc(NC(=O)c3ccccn3)cc2)no1 (stereo unspecified)	inactive: 104%
COC(=O)C1CCN(C2CC(=O)N(c3cc(C)cc(C)c3)C2=O)CC1 (stereo unspecified)	inactive: 97.3%
CS(=O)(=O)c1nc(-c2ccc(Br)cc2)n[nH]1	inactive: 104%
CN(C)CC(C)(C)CNC(=S)Nc1cc(S(=O)(=O)N2CCOCC2)ccc1Cl	inconclusive: 81.4%
O=C(NCc1ccco1)C(NS(=O)(=O)c1cccc2nsnc12)c1ccccc1 (stereo unspecified)	inactive: 108%
CC(C)(C)c1ccc(-c2nc(O)c(CC(=O)O)s2)cc1	inconclusive: 140%
Cc1ccc(N2C(SCC(=O)O)=NC(=Nc3cccc(C)c3)C23CCCC3)cc1	inactive: 91%
CSCC[C@H](NC(=O)OC(C)(C)C)c1nnc(SCC=C(C)C)o1	inactive: 101%
COc1ccccc1C(=O)NCC(=O)Nc1cccnc1	inconclusive: 92.3%
Cc1sc2nc(CN3CCCC3)nc(N3CCN(C(=O)c4ccco4)CC3)c2c1C	inconclusive: 123%
COc1cc(NC(=O)c2ccccc2-c2ccccc2)cc(OC)c1OC	inconclusive: 91.7%
CCOc1cc(/C=N/NC(=O)CCn2nc(C)cc2C)ccc1O	inconclusive: 100%
O=c1c(C(c2ccc(Br)cc2)c2c(O)nc3n(c2=O)CCS3)c(O)nc2n1CCS2	inconclusive: -352%
O=C(Nc1n[nH]c(C(F)(F)F)n1)c1cccs1	inconclusive: 76.8%
Cc1ncc(S(=O)(=O)C(C)(C)C)c(N)n1	inconclusive: -89%
Cn1c(SCC(=O)N2CCOCC2)nnc1-c1ccc2ncccc2c1	inconclusive: 74%
COC(=O)c1cc(S(=O)(=O)NCc2ccc(S(N)(=O)=O)cc2)oc1C	inconclusive: 81%
COC(=O)Cn1c(=NC(=O)CSCC(=O)Nc2cc(C)on2)sc2ccccc21	inconclusive: 112%
Cc1ccc2cc(C#N)c(SCC(=O)N3CCCC3)nc2c1	inconclusive: 117%
COc1ccc(-c2csc(NC(=O)c3ccccc3S(C)(=O)=O)n2)cc1	inconclusive: 114%
CC(=O)N1CCN(c2ccc(NCc3cccs3)cc2)CC1	active: 40.3%

Structure (SMILES)	binding response (% of control)
S=c1nc2ccccc2c2nc(-c3cccnc3)[nH]n12	inconclusive: 106%
S=C(NCCCN1CCOCC1)Nc1ccc(Nc2ccccc2)cc1	inactive: 103%
O=C(N/N=C/c1cc([N+](=O)[O-])ccc1O)c1ccncc1	inconclusive: 124%
CC1CCC(C(C)C)C(OC(=O)C[n+]2cc(-c3ccc(Cl)cc3)n3c2CCC3)C1 (stereo unspecified)	inconclusive: 102%
CC(C)OCCCNC(=O)C1CCC(CNS(=O)(=O)c2ccc(Cl)cc2)CC1 (stereo unspecified)	inactive: 96.3%
CN(C)/C=N/S(=O)(=O)c1ccc(Cl)cc1	inconclusive: 87.3%
COc1ccc(OCC(O)CNC(=O)c2sccc2Cl)cc1 (stereo unspecified)	inconclusive: 76.1%
C/C(O)=C(\N=Nc1cc(C)ccc1O)C(N)=O	inactive: 101%
CNC(=S)Nc1cccc(C(C)=O)c1	inconclusive: 110%
CC(C)CC(N)C(=O)OCc1ccc([N+](=O)[O-])cc1 (stereo unspecified)	inconclusive: 101%
COc1ccc(/C=N/NC(=O)c2ccccc2O)cc1CN1CCOCC1	inconclusive: 89.6%
COc1ccc(CC(=O)NNc2ncnc3c2cnn3Cc2ccccc2)cc1OC	inconclusive: 113%
C/C(=C\C(=O)Nc1cscc1C)C(=O)O	inconclusive: 131%
CCN(CC)CCn1nc2c3c(cccc3c1=O)-c1ccccc1-2	inconclusive: 106%
CC(=O)CC(=O)Nc1ncccn1	inconclusive: 113%
C=CCN(c1ccccc1Cl)S(=O)(=O)c1cc(C(=O)N2CCCC2)ccc1Cl	inconclusive: 80.5%
COc1ccccc1OCC(=O)O/N=C(\N)c1ccccn1	inconclusive: 90.9%
Cc1noc2ncnc(SCc3ccc(C(F)(F)F)cc3)c12	inconclusive: 88.7%
O=C(NCc1ccccn1)c1ccc(Cn2cc(C(F)(F)F)ccc2=O)cc1	inconclusive: 82.2%
O=C(CCN1C(=O)c2ccc([N+](=O)[O-])cc2C1=O)Nc1ccccc1C(=O)O	inconclusive: 101%
C[C@@H]1CC=C[C@H]2[C@H]1C(=O)N(Cc1ccccc1)[C@H]2c1cccc([N+](=O)[O-])c1	inconclusive: 95.1%
O=C(Cc1ccccc1F)NCC1(N2CCOCC2)CCCCC1	inconclusive: 57%
